Laboratory results as given in article PMC8526623.

Sequences of proteins named here, by UniProt entry; tags and fusion partners are left off.
UniProt Q92576: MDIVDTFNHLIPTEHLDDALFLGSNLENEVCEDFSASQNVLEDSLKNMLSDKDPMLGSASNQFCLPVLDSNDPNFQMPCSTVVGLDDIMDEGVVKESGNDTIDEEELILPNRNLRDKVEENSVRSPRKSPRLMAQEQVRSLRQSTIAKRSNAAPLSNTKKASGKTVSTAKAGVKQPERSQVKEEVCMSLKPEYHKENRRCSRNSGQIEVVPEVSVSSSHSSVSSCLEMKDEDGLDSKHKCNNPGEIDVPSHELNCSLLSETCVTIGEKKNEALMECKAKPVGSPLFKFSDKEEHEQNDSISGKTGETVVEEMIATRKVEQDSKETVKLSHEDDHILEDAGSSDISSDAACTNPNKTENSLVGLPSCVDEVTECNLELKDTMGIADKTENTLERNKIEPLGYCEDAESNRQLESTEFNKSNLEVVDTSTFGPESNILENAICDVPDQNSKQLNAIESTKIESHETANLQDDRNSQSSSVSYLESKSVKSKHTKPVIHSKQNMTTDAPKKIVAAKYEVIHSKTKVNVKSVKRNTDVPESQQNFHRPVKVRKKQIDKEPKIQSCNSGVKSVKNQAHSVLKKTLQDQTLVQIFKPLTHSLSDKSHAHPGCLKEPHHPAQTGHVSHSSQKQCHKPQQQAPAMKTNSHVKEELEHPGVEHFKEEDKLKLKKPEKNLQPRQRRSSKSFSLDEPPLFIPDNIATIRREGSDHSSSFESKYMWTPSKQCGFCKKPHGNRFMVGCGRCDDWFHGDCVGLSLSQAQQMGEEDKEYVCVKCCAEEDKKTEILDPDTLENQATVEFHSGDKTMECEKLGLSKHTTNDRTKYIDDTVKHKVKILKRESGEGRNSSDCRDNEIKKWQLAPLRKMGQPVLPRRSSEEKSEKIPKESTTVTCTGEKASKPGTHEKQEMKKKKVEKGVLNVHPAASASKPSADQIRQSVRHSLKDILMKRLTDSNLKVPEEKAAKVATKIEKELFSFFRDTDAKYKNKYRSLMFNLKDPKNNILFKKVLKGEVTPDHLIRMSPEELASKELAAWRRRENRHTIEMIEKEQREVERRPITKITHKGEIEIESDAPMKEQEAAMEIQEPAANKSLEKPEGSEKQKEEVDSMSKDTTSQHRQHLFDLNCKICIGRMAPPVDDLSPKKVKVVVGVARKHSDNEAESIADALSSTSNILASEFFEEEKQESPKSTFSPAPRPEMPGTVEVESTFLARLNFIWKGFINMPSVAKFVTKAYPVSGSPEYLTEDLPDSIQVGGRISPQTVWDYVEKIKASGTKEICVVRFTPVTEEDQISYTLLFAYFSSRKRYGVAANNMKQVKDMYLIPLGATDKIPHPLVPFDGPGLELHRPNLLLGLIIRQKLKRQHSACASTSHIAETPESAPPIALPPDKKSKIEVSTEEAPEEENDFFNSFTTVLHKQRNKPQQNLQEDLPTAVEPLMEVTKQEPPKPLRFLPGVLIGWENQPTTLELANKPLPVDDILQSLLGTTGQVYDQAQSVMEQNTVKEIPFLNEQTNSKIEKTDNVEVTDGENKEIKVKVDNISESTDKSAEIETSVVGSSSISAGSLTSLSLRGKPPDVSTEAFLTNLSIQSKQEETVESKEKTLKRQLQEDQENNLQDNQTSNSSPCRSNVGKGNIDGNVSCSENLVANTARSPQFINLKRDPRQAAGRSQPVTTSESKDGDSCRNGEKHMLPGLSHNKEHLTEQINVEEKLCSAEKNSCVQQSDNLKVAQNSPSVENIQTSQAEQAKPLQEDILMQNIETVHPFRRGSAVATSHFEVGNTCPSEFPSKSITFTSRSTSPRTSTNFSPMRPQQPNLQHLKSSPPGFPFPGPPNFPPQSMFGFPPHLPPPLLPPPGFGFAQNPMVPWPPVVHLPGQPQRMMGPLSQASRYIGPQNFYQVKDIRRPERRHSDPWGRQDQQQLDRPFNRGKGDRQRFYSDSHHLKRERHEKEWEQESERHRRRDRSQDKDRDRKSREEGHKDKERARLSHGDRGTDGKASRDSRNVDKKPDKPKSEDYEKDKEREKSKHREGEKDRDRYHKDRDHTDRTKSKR

Biological target: FLAG-PHF3 (PHD-finger protein 3) (human) (UniProt Q92576)
Test: affinity purification with mass spectrometry; FLAG-PHF3 expressed in HEK293T; anti-FLAG M2 magnetic beads, lysate with benzonase; empty vector as control; SAINT-MS1

binding | Binder
binds | ZNF326 (protein, UniProt Q5BKZ1 1-582) MDFEDDYTHSACRNTYQGFNGMDRDYGPGSYGGMDRDYGHGSYGGQRSMDSYLNQSYGMDNHSGGGGGSRFGPYESYDSRSSLGGRDLYRSGYGFNEPEQSRFGGSYGGRFESSYRNSLDSFGGRNQGGSSWEAPYSRSKLRPGFMEDRGRENYSSYSSFSSPHMKPAPVGSRGRGTPAYPESTFGSRNYDAFGGPSTGRGRGRGHMGDFGSIHRPGIVVDYQNKSTNVTVAAARGIKRKMMQPFNKPSGTFIKKPKLAKPMEKISLSKSPTKTDPKNEEEEKRRIEARREKQRRRREKNSEKYGDGYRMAFTCSFCKFRTFEEKDIELHLESSSHQETLDHIQKQTKFDKVVMEFLHECMVNKFKKTSIRKQQTNNQTEVVKIIEKDVMEGVTVDDHMMKVETVHCSACSVYIPALHSSVQQHLKSPDHIKGKQAYKEQIKRESVLTATSILNNPIVKARYERFVKGENPFEIQDHSQDQQIEGDEEDEEKIDEPIEEEEDEDEEEEAEEVGEVEEVEEVEEVREGGIEGEGNIQGVGEGGEVGVVGEVEGVGEVEEVEELEEETAKEEPADFPVEQPEEN
binds | RBM15 (protein, UniProt Q96T37 1-977) MRTAGRDPVPRRSPRWRRAVPLCETSAGRRVTQLRGDDLRRPATMKGKERSPVKAKRSRGGEDSTSRGERSKKLGGSGGSNGSSSGKTDSGGGSRRSLHLDKSSSRGGSREYDTGGGSSSSRLHSYSSPSTKNSSGGGESRSSSRGGGGESRSSGAASSAPGGGDGAEYKTLKISELGSQLSDEAVEDGLFHEFKRFGDVSVKISHLSGSGSGDERVAFVNFRRPEDARAAKHARGRLVLYDRPLKIEAVYVSRRRSRSPLDKDTYPPSASVVGASVGGHRHPPGGGGGQRSLSPGGAALGYRDYRLQQLALGRLPPPPPPPLPRDLERERDYPFYERVRPAYSLEPRVGAGAGAAPFREVDEISPEDDQRANRTLFLGNLDITVTESDLRRAFDRFGVITEVDIKRPSRGQTSTYGFLKFENLDMSHRAKLAMSGKIIIRNPIKIGYGKATPTTRLWVGGLGPWVPLAALAREFDRFGTIRTIDYRKGDSWAYIQYESLDAAHAAWTHMRGFPLGGPDRRLRVDFADTEHRYQQQYLQPLPLTHYELVTDAFGHRAPDPLRGARDRTPPLLYRDRDRDLYPDSDWVPPPPPVRERSTRTAATSVPAYEPLDSLDRRRDGWSLDRDRGDRDLPSSRDQPRKRRLPEESGGRHLDRSPESDRPRKRHCAPSPDRSPELSSSRDRYNSDNDRSSRLLLERPSPIRDRRGSLEKSQGDKRDRKNSASAERDRKHRTTAPTEGKSPLKKEDRSDGSAPSTSTASSKLKSPSQKQDGGTAPVASASPKLCLAWQGMLLLKNSNFPSNMHLLQGDLQVASSLLVEGSTGGKVAQLKITQRLRLDQPKLDEVTRRIKVAGPNGYAILLAVPGSSDSRSSSSSAASDTATSTQRPLRNLVSYLKQKQAAGVISLPVGGNKDKENTGVLHAFPPCEFSQQFLDSPAKALAKSEEDYLVMIIVRGFGFQIGVRYENKKRENLALTLL

No constants are given. Whether binding was seen depends on the method and setting. Binding seen in cells or lysates may run through a third protein. A yes stands for co-enrichment or nearness to the bait. Other partners may have been found.
